Z-score data for 29 sequences are collected here from PubChem BioAssay AID1347423 (Functional Genomics Laboratory (NCATS/FGL), 2020).

Screen size: about 52,000 sequences; about 210 (0.4%) were called active.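 How the source made its calls: active means gene whose silencing raises cell survival under the drug, median off-target-corrected z-score across its silencing RNAs 2 or more; inactive means the rest.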 This is one part of the list.

The assay in a line: Resistance to Poly (ADP-Ribose) Polymerase inhibitor: Gene Identification via Genome-wide siRNA Screen. To be noted: mouse BRCA2 R2336H ES cells, olaparib, CellTiter-Glo viability; active compounds read high. The procedure, abridged: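 Mouse BRCA2 R2336H ES cells were reverse-transfected with siRNA (20 nM final), treated at 48 h with 500 nM olaparib, and read by CellTiter-Glo after 72 h. Scores: MAD-based z per siRNA, median per gene, seed off-target correction.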
For the sequence GGGACUUUCCAAACUAUAUTT against Irak1bp1, the z-score was inactive: -0.132.

As to GCAUCAGAGAAGUGCGAGCTT against Pafah2, the z-score was inactive: -0.509.

As for CCAGCACUAAAAGUAAGUGTT against V1rd12, the z-score is inactive: 0.378.

AGCCUAGCCUUUUUUGUACTT against Mt2: the z-score was inactive: 0.902.

Regarding GGCUUCAAAGCAUGACCAGTT against Ccr1, the z-score is inactive: 0.74.

Take GAGGUACCUCUACACAGAUTT against Fgf21: the z-score is inactive: -2.56.

Consider GGUGAUGUACAAAGCCAAUTT against Gab3, for which the z-score is inactive: -0.269.

With GGAUGAAAAUGAGUGGAAATT against Cdv3, the z-score was inactive: 0.778.

Regarding GCUUUCUACACCAUUCUUATT against Olfr165, the z-score is inactive: 1.59.

CCAUUACAGGGUUAUUGCATT against Rnf8: the z-score is inactive: -2.28.

Turning to “GCACCUGGUGAAUUUUACCTT against D15Ertd405e”, the z-score was inactive: 1.06.

Consider GGAAUCAGCUAAUGAUUUCTT against AW125391, for which the z-score is inactive: 0.338.

Regarding UAUGGACGCAUUGGAGCCATT against Olfr348, the z-score was inactive: -0.681.

Take GCAUUAUCCAGAACUUAGATT against Sema3f: the z-score is inactive: 0.667.

For the sequence GGCGAGAGGUACGACAAUATT against H60, the z-score is inactive: 0.622.

On to GGCUGGUACAAAGUUUUAGTT against Mpv17, for which the z-score was inactive: 0.594.

Turning to CCUCAAGACUAUCAGGAGATT against Nrbf2, the z-score was inactive: -0.471.

As for GGGCUAAAGUUGAUAAUAATT against Psmc3, the z-score is inactive: -3.32.

Regarding CGCAGAGUUGAUUGUCCUGTT against Neu2, the z-score was inactive: 0.8.

In the case of GGAACACGAAUCAUUUAUGTT against Eif4ebp2, the z-score was inactive: 0.322.

Take GGCCAUUCAGACGAGUGUUTT against Hivep3: the z-score is inactive: -0.695.

As for GGUAAGUGGAGGUAUUCUUTT against Egln1, the z-score was inactive: 1.58.

With CGCUGAGCACUUUUCGGAATT against Rbp1, the z-score was inactive: 0.625.

For GGCACAGCUGAUGAAACAATT against Ap2m1, the z-score was inactive: -2.19.

For “GGAUUUAGGUAUGUUUCACTT against C030011J08Rik”, the z-score is inactive: 1.87.

As for GCCAAUGGUCACGAACCUATT against Senp5, the z-score is inactive: 0.0286.

Turning to GGCAUGUAAUUUGAUGAUCTT against Mansc1, the z-score is inactive: 1.34.

Take CGGAAACAAACGGACUGAUTT against Agpat4: the z-score was inactive: -1.5.

As to GCAGUACAGAUCGCCAUUATT against Tmeff1, the z-score was inactive: 1.19.
